The subject of data set [1] is B16F10 cells. Put plainly: In vitro cytotoxicity (MTT) assay, B16F10. The conditions noted are these: B16F10, 10 μg/mL, 1-day exposure; listed as IA-trimer.
Data set [2] concerns the target purified human αvβ3 (Homo sapiens, UniProt P05106+P06756). Put plainly: ELISA: competitive inhibition of biotinylated vitronectin binding to immobilized purified integrin αvβ3. The conditions noted are these: compared to monovalent IA.

Data on two compounds can be found in US9833520B2, “Labeled, non-peptidic, multivalent integrin antagonist compounds; methods for synthesis and uses thereof” (The Methodist Hospital Research Institute, priority 2011, dated 2017).

Structures are written as SMILES. For part of its entries the source gives two or more results. They are shown here; other results are not. The source may hold further records. Values given together do not match, cause unknown; dose, time, organism, isomer or construct need not be as stated for each record.

`O=C(NCCS(=O)(=O)N[C@@H](CNC(=O)c1ccc(OCCNC2=NCCCN2)cc1)C(=O)O)OCCN(CCOC(=O)NCCS(=O)(=O)N[C@@H](CNC(=O)c1ccc(OCCNC2=NCCCN2)cc1)C(=O)O)CCOC(=O)NCCS(=O)(=O)N[C@@H](CNC(=O)c1ccc(OCCNC2=NCCCN2)cc1)C(=O)O` [IA trimer]: the cell viability entry in data set [1] was “About 90% and Less than 90%”.
In the case of `NC(CCCCCC(=O)NCCS(=O)(=O)N[C@@H](CNC(=O)c1ccc(OCCNC2=NCCCN2)cc1)C(=O)O)C(=O)NCCS(=O)(=O)N[C@@H](CNC(=O)c1ccc(OCCNC2=NCCCN2)cc1)C(=O)O` (some centres unmarked) [bivalent IA], in data set [2], the “improvement in receptor affinity (IC50) over parent compound IA” value is “over 50 fold and 50 fold”.
